Read-outs that look alike come from different tables or passages of the source. No constants are given. Whether binding was seen depends on the method and setting. In cells and extracts the contact can be indirect. Some binding calls cover weakened binding; strength is not graded here. For some assays here: Sequences can lack the tags named with a protein.
T1: PIGN (phosphatidylinositol glycan anchor biosynthesis class N), endogenous (human (endogenous in K562)) (UniProt O95427)
T1 sequence: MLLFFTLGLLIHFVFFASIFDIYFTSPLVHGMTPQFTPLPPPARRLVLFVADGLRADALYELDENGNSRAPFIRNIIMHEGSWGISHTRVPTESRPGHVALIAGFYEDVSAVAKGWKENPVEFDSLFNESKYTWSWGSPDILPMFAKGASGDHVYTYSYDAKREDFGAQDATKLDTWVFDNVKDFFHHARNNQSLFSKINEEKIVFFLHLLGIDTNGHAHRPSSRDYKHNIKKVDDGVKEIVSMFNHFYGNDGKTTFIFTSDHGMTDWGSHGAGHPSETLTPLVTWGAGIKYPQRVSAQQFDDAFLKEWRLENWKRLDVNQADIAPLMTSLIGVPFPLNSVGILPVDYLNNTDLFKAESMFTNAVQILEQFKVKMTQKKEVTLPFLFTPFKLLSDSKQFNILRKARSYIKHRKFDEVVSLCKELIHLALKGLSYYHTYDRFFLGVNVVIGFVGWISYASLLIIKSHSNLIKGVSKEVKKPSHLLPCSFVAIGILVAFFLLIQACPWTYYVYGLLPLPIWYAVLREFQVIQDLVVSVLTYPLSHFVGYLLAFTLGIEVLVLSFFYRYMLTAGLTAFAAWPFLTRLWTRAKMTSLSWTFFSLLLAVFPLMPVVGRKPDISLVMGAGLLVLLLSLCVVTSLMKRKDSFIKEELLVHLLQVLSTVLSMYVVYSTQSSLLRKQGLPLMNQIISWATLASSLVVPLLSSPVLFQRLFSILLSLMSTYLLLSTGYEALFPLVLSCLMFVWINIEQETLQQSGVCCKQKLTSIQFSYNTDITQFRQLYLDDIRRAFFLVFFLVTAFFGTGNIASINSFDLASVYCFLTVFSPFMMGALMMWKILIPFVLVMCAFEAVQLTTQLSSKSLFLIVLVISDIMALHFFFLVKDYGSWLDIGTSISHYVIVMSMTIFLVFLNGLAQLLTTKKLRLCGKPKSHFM

Protein sequences, listed by entry. Tags and fused reporters are not part of them.
UniProt Q13257: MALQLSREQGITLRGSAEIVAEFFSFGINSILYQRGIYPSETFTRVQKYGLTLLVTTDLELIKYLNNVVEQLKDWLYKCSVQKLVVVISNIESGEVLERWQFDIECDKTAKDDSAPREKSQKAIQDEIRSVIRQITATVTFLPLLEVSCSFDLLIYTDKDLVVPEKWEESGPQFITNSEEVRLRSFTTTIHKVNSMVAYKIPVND

T2: 3HA-tagged PIGN (phosphatidylinositol glycan anchor biosynthesis class N) (human) (UniProt O95427)
T2 sequence: T1 sequence

B1: MAD1 (protein, UniProt Q9Y6D9 1-718)
chain: MEDLGENTMVLSTLRSLNNFISQRVEGGSGLDISTSAPGSLQMQYQQSMQLEERAEQIRSKSHLIQVEREKMQMELSHKRARVELERAASTSARNYEREVDRNQELLTRIRQLQEREAGAEEKMQEQLERNRQCQQNLDAASKRLREKEDSLAQAGETINALKGRISELQWSVMDQEMRVKRLESEKQELQEQLDLQHKKCQEANQKIQELQASQEARADHEQQIKDLEQKLSLQEQDAAIVKNMKSELVRLPRLERELKQLREESAHLREMRETNGLLQEELEGLQRKLGRQEKMQETLVGLELENERLLAKLQSWERLDQTMGLSIRTPEDLSRFVVELQQRELALKDKNSAVTSSARGLEKARQQLQEELRQVSGQLLEERKKRETHEALARRLQKRVLLLTKERDGMRAILGSYDSELTPAEYSPQLTRRMREAEDMVQKVHSHSAEMEAQLSQALEELGGQKQRADMLEMELKMLKSQSSSAEQSFLFSREEADTLRLKVEELEGERSRLEEEKRMLEAQLERRALQGDYDQSRTKVLHMSLNPTSVARQRLREDHSQLQAECERLRGLLRAMERGGTVPADLEAAAASLPSSKEVAELKKQVESAELKNQRLKEVFQTKIQEFRKACYTLTGYQIDITTENQYRLTSLYAEHPGDCLIFKATSPSGSKMQLLETEFSHTVGELIEVHLRRQDSIPAFLSSLTLELFSRQTVA
B2: MPS1 (protein, UniProt P33981 1-857)
chain: MESEDLSGRELTIDSIMNKVRDIKNKFKNEDLTDELSLNKISADTTDNSGTVNQIMMMANNPEDWLSLLLKLEKNSVPLSDALLNKLIGRYSQAIEALPPDKYGQNESFARIQVRFAELKAIQEPDDARDYFQMARANCKKFAFVHISFAQFELSQGNVKKSKQLLQKAVERGAVPLEMLEIALRNLNLQKKQLLSEEEKKNLSASTVLTAQESFSGSLGHLQNRNNSCDSRGQTTKARFLYGENMPPQDAEIGYRNSLRQTNKTKQSCPFGRVPVNLLNSPDCDVKTDDSVVPCFMKRQTSRSECRDLVVPGSKPSGNDSCELRNLKSVQNSHFKEPLVSDEKSSELIITDSITLKNKTESSLLAKLEETKEYQEPEVPESNQKQWQSKRKSECINQNPAASSNHWQIPELARKVNTEQKHTTFEQPVFSVSKQSPPISTSKWFDPKSICKTPSSNTLDDYMSCFRTPVVKNDFPPACQLSTPYGQPACFQQQQHQILATPLQNLQVLASSSANECISVKGRIYSILKQIGSGGSSKVFQVLNEKKQIYAIKYVNLEEADNQTLDSYRNEIAYLNKLQQHSDKIIRLYDYEITDQYIYMVMECGNIDLNSWLKKKKSIDPWERKSYWKNMLEAVHTIHQHGIVHSDLKPANFLIVDGMLKLIDFGIANQMQPDTTSVVKDSQVGTVNYMPPEAIKDMSSSRENGKSKSKISPKSDVWSLGCILYYMTYGKTPFQQIINQISKLHAIIDPNHEIEFPDIPEKDLQDVLKCCLKRDPKQRISIPELLAHPYVQIQTHPVNQMAKGTTEEMKYVLGQLVGLNSPNSILKAAKTLYEHYSGGESHNSSSSKTFEKKRGKK
B3: MAD1, endogenous in K562 (protein, UniProt Q9Y6D9 1-718)
chain: B1 chain

What was measured:
[1] = target: T1, PIGN (phosphatidylinositol glycan anchor biosynthesis class N), endogenous (human (endogenous in K562)); assay: co-IP; endogenous proteins of K562 cells treated with Taxol (60 ng/µl) or nocodazole (60–100 ng/µl) for 12 h (SAC activation); precipitating antibody not told in the text shown
[2] = target: T2, 3HA-tagged PIGN (phosphatidylinositol glycan anchor biosynthesis class N) (human); assay: co-IP; HA-tag IP of 3HA-PIGN from transiently transfected PIGN knockout HEK293 cells, partners found by western blot; cells asynchronous (48 h post-transfection), G2/M synchronised, or released from early S-phase (double-thymidine block) over a 10-h time course
[3] = target: T1, PIGN (phosphatidylinositol glycan anchor biosynthesis class N), endogenous (human (endogenous in K562)); assay: co-IP; endogenous proteins of K562 cells treated with Taxol (60 ng/µl) or nocodazole (60–100 ng/µl) for 12 h (SAC activation); precipitating antibody not told in the text shown; remark: listed apart in the source

Row | Molecule | binding [2] | other results
1 | MAD2, endogenous in K562 (from UniProt Q13257 1-205) |  | binding [1]: binds
2 | MAD2 (from UniProt Q13257 1-205) | binds | 
3 | B1 | binds | 
4 | B2 | binds | 
5 | B3 |  | binding [3]: binds

Source: paper PMC8463542
